This is an account of results in PubChem BioAssay AID248 (DTP/NCI, 2004).

The assay has as its system L1210 leukemia ip in BDF1 mice, survival T/C. The experiment in a line: NCI In Vivo Anticancer Drug Screen. Data for tumor model L1210 Leukemia (intraperitoneal) in B6D2F1 (BDF1) mice. The note with it: T/C endpoint: mean survival time, higher T/C = longer survival.
The mark [1] stands for this setting: dose: 200.0 mg/kg/injection, schedule: Q01DX001 (ip), vehicle: saline.
Setting [2] is: dose: 400.0 mg/kg/injection, schedule: Q01DX001 (ip), vehicle: saline.
Where [3] appears, read: dose: 50.0 mg/kg/injection, schedule: Q01DX001 (ip), vehicle: carboxymethylcellulose (CMC).
Setting [4] is: dose: 100.0 mg/kg/injection, schedule: Q01DX001 (ip), vehicle: carboxymethylcellulose (CMC).
[5] abbreviates: dose: 200.0 mg/kg/injection, schedule: Q01DX001 (ip), vehicle: carboxymethylcellulose (CMC).
Where [6] appears, read: dose: 400.0 mg/kg/injection, schedule: Q01DX001 (ip), vehicle: carboxymethylcellulose (CMC).
[7] abbreviates: dose: 200.0 mg/kg/injection, schedule: Q04DX003 (ip), vehicle: saline.
Setting [8] is: dose: 400.0 mg/kg/injection, schedule: Q04DX003 (ip), vehicle: saline.
Where [9] appears, read: dose: 400.0 mg/kg/injection, schedule: Q01DX009 (ip), vehicle: Klucel (hydroxypropylcellulose) (HPC).
The mark [10] stands for this setting: dose: 80.0 mg/kg/injection, schedule: Q01DX001 (ip), vehicle: saline.
Setting [11] is: dose: 100.0 mg/kg/injection, schedule: Q01DX001 (ip), vehicle: saline.
Where [12] appears, read: dose: 400.0 mg/kg/injection, schedule: Q04DX003 (ip), vehicle: Klucel (hydroxypropylcellulose) (HPC).
The mark [13] stands for this setting: dose: 400.0 mg/kg/injection, schedule: Q04DX002 (ip), vehicle: saline with Tween-80.
[14] abbreviates: dose: 150.0 mg/kg/injection, schedule: Q01DX001 (ip), vehicle: saline.

The list is a part of this screen's results and no random one: it gathers tests that were run many times, whatever their T/C, doses with no T/C, and many T/C values between a quarter and a half above the control. Other doses and runs of a compound stand elsewhere. T/C is the treated group as % of the vehicle group. Some entries give survivors of the animals treated and no T/C: the source files T/C as zero there, which appears to mark a toxic dose or a test without result, not a measured value. Some survivor counts are full or nearly so, which does not show that the dose was tolerated: survival well below the control is almost never listed, so the zero probably covers shortened survival too. Survivors were counted at the toxicity check, usually on the fifth day, unless a day is given; later deaths do not show. Schedules are NCI's codes, read here as Q, the interval in days (D) or hours (H), X, the number of doses. Some structures stand for samples that the source files as different forms (salt, stereo form or complex); doses refer to the form tested. Where survival is the endpoint, the PubChem record calls one and a half times the control and up active, and a quarter to a half above the control has no call in these data; cut-offs in other NCI protocols can differ. Some T/C values carry the count of animals alive at the toxicity check (mostly the fifth day); without a count, all were alive then.

In the case of `C#CCOCCC#N`, the survivor count (dose: 400.0 mg/kg/injection, schedule: Q04DX002 (ip), vehicle: saline) is 3 of 3.

Take `CC(C)OC(=O)C#CC(=O)O`: the survivor count was 0 of 6 under setting [1] and 0 of 6 under setting [2].

As to `C(=C/[PH+](c1ccccc1)c1ccccc1)/[PH+](c1ccccc1)c1ccccc1.C(=C/[PH+](c1ccccc1)c1ccccc1)/[PH+](c1ccccc1)c1ccccc1.[O-][Cl+3]([O-])([O-])O.[Rh]`, the survivor count (dose: 200.0 mg/kg/injection, schedule: Q01DX001 (ip), vehicle: saline with Tween-80) is 3 of 3.

Consider `C#CC1(N2CCCCC2)CCCCC1`, for which the survivor count (dose: 400.0 mg/kg/injection, schedule: Q04DX002 (ip), vehicle: Klucel (hydroxypropylcellulose) (HPC)) is given as 1 of 3.

`O=C1C=CC(=C(c2ccccc2)c2ccccc2)C=C1`: the survivor count is reported as 5 of 6 (dose: 75.0 mg/kg/injection, schedule: Q01DX009 (ip), vehicle: saline); 2 of 6 (dose: 150.0 mg/kg/injection, schedule: Q01DX009 (ip), vehicle: saline); 2 of 6 (dose: 300.0 mg/kg/injection, schedule: Q04DX003 (ip), vehicle: saline).

For `O=C(CCN1CC1)NCCCCCCCCNC(=O)CCN1CC1`, the T/C by setting is: (dose: 11.0 mg/kg/injection, schedule: Q01DX009 (ip), vehicle: carboxymethylcellulose (CMC)) 141 % of control; (dose: 14.6 mg/kg/injection, schedule: Q01DX009 (ip), vehicle: carboxymethylcellulose (CMC)) 133 % of control; (dose: 17.0 mg/kg/injection, schedule: Q01DX009 (ip), vehicle: carboxymethylcellulose (CMC)) 143 % of control; (dose: 22.0 mg/kg/injection, schedule: Q01DX009 (ip), vehicle: carboxymethylcellulose (CMC)) 134 % of control; (dose: 40.0 mg/kg/injection, schedule: Q01DX009 (ip), vehicle: carboxymethylcellulose (CMC)) 128 % of control; under setting [3], 125 % of control. Also, the survivor count reads like this: under setting [4], 0 of 4; under setting [5], 0 of 4; under setting [6], 0 of 4.

For `CN1CN(C)CN(C)C1`, the survivor count reads like this: (dose: 25.0 mg/kg/injection, schedule: Q04DX003 (ip), vehicle: saline) 3 of 6; under setting [7], 2 of 6; under setting [8], 0 of 6.

For the compound `Cc1cccc(C(=O)NNC(=O)c2cccc(C)c2)c1`, under setting [9], the survivor count is 2 of 6.

`CC1(C)CC(=O)C(C23C=CC2=C(CO)C(=O)OC3)C1` (stereo not given): the survivor count was 0 of 4 (dose: 50.0 mg/kg/injection, schedule: Q01DX001 (ip), vehicle: saline); 2 of 4 under setting [10]; 1 of 4 under setting [11]; 0 of 4 under setting [1]; 0 of 4 under setting [2].

`CC(=O)OC1CCC2(C)C(C)CC3C(=O)OC32C1` (stereo not given): under “dose: 400.0 mg/kg/injection, schedule: Q04DX003 (ip), vehicle: acetone”, the survivor count is 5 of 6.

Regarding `NC(N)=NC(N)=NCCCCc1ccccc1`, the survivor count is on record as 0 of 3 (dose: 100.0 mg/kg/injection, schedule: Q04DX003 (ip), vehicle: Klucel (hydroxypropylcellulose) (HPC)); 1 of 3 (dose: 200.0 mg/kg/injection, schedule: Q04DX003 (ip), vehicle: Klucel (hydroxypropylcellulose) (HPC)); 0 of 3 under setting [12].

`Cc1ccc2c(c1)NP(=O)(c1ccccc1)S2` (stereo not given): the survivor count by setting is: (dose: 200.0 mg/kg/injection, schedule: Q04DX002 (ip), vehicle: saline with Tween-80) 1 of 3; under setting [13], 0 of 3.

Regarding `CC(C)N=NCCO`, the survivor count under setting [9] is given as 3 of 3.

Regarding `CCc1ccc(NC(=S)Nc2ccccc2)cc1`, the survivor count (dose: 400.0 mg/kg/injection, schedule: Q04DX002 (ip), vehicle: other) is given as 1 of 3.

With `COc1ncnc(Cl)c1[N+](=O)[O-]`, under setting [12], the survivor count is on record as 3 of 6.

Take `CCOc1ccc(Cl)cc1`: for the setting “dose: 400.0 mg/kg/injection, schedule: Q01DX009 (ip), vehicle: saline with Tween-80”, the survivor count is recorded as 6 of 6.

Take `CNc1ncnc2c1ncn2C1CC(CO)C(O)C1O` (stereo not given): the survivor count (dose: 200.0 mg/kg/injection, schedule: Q01DX009 (ip), vehicle: saline) is 6 of 6.

As to `CON=C1CCC(C(C)(C)C)CC1` (stereo not given), the survivor count is 1 of 6 (dose: 150.0 mg/kg/injection, schedule: Q01DX001 (ip), vehicle: carboxymethylcellulose (CMC)) and 2 of 6 (dose: 300.0 mg/kg/injection, schedule: Q01DX001 (ip), vehicle: carboxymethylcellulose (CMC)).

On to `O=C1CC(c2cccc(S(=O)(=O)O)c2)=NN1c1ccc([N+](=O)[O-])cn1`, for which the survivor count by setting is: (dose: 100.0 mg/kg/injection, schedule: Q04DX003 (ip), vehicle: saline) 1 of 6; under setting [7], 0 of 6; under setting [8], 0 of 6.

For `CS/C(N)=N\N=C\c1ccccn1`, the survivor count under setting [3] was 1 of 6, the survivor count under setting [4] is reported as 1 of 6, the survivor count under setting [5] is reported as 0 of 6 and the survivor count under setting [6] is 0 of 6.

In the case of `CNc1c2c(nc3ccccc13)CCCC2`, the survivor count is recorded as 0 of 6 (dose: 100.0 mg/kg/injection, schedule: Q04DX003 (ip), vehicle: saline with Tween-80); 0 of 6 (dose: 200.0 mg/kg/injection, schedule: Q04DX003 (ip), vehicle: saline with Tween-80); 0 of 6 (dose: 400.0 mg/kg/injection, schedule: Q04DX003 (ip), vehicle: saline with Tween-80).

With `CCOC(=O)c1ccc(N(CCOS(C)(=O)=O)CCOS(C)(=O)=O)cc1`, the T/C reads like this: (dose: 25.0 mg/kg/injection, schedule: Q01DX015 (ip), vehicle: saline) 132 % of control [5 of 6 alive]; (dose: 50.0 mg/kg/injection, schedule: Q01DX015 (ip), vehicle: saline) 125 % of control [4 of 6 alive]; under setting [14], 125 % of control; (dose: 800.0 mg/kg/injection, schedule: Q01DX001 (ip), vehicle: saline) 142 % of control. In addition, for the setting “dose: 200.0 mg/kg/injection, schedule: Q01DX015 (ip), vehicle: saline”, the survivor count is on record as 1 of 6.

In the case of `CS(=O)(=O)OCc1c(O)c2c(c(O)c1COS(C)(=O)=O)C(=O)C=CC2=O`, the survivor count by setting is: (dose: 100.0 mg/kg/injection, schedule: Q01DX009 (ip), vehicle: water) 1 of 6; (dose: 200.0 mg/kg/injection, schedule: Q01DX009 (ip), vehicle: water) 0 of 6; (dose: 400.0 mg/kg/injection, schedule: Q01DX009 (ip), vehicle: water) 0 of 6.

Take `C[As](C)N`: the survivor count reads like this: (dose: 40.0 mg/kg/injection, schedule: Q01DX001 (ip), vehicle: saline) 1 of 6; (dose: 75.0 mg/kg/injection, schedule: Q01DX001 (ip), vehicle: saline) 0 of 6; under setting [11], 0 of 6; under setting [14], 0 of 6; under setting [1], 0 of 6; (dose: 300.0 mg/kg/injection, schedule: Q01DX001 (ip), vehicle: saline) 0 of 6. Under setting [2], the survivor count is recorded as 0 of 6.

Regarding `Cc1ccnc2c([N+](=O)[O-])cccc12`, under setting [13], the survivor count is listed as 0 of 3.

`COc1cc2c(cc1OC(C)=O)C(OC(C)=O)CCCC2` (stereo not given): the survivor count reads like this: under setting [10], 2 of 4; under setting [11], 1 of 4; under setting [1], 1 of 4; under setting [2], 1 of 4.

Regarding `Oc1cccc2ccc3cccc(O)c3c12`, under “dose: 400.0 mg/kg/injection, schedule: Q04DX003 (ip), vehicle: alcohol”, the survivor count is 0 of 6.
